Reference: publication PMC8665361
No constants are given. Whether binding was seen depends on the method and setting. In cells and extracts the contact can be indirect. For part of these data: Binding calls can cover weak binding; strength is not graded here.

The chains behind the UniProt entries cited, without tags or fusion partners.
UniProt Q14790: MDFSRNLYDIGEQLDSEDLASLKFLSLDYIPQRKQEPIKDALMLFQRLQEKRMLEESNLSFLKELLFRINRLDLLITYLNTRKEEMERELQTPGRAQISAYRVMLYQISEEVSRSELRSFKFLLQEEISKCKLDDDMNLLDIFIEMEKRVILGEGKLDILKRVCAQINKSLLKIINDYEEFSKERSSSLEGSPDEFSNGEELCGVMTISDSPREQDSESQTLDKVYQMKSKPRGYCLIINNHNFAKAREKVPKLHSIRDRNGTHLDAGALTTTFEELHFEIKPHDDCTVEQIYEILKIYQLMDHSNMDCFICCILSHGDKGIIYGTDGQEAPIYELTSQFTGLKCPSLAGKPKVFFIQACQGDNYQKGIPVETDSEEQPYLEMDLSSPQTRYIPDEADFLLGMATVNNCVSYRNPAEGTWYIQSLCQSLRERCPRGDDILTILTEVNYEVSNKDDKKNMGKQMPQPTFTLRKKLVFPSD

Columns and labels:
[1] = biological target: T1, endogenous FBXO7 (HEK293 cells) (human (endogenous in HEK293)) (UniProt Q9Y3I1); test: co-IP; HEK293 cells transfected 24 h with FLAG- or HA-tagged catalytically inactive caspases; endogenous FBXO7; text: IP with anti-FLAG or anti-HA and blot with anti-FBXO7; legend: IP with anti-FBXO7
T1 sequence: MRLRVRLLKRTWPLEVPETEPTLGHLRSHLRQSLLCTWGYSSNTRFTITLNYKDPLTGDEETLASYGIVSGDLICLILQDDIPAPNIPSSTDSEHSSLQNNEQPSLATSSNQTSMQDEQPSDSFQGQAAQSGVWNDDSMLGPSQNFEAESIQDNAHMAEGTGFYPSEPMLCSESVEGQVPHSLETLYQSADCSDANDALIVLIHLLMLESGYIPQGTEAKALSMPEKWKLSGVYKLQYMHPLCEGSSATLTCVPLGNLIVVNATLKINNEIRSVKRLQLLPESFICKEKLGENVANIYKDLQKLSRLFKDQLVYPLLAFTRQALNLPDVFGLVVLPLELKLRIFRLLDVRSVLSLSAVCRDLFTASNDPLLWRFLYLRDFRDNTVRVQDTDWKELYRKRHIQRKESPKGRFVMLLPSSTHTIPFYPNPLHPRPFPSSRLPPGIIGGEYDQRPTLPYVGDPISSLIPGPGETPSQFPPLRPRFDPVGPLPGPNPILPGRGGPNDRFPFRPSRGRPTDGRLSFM

[2] = biological target: FLAG-tagged FBXO7 deletion mutant lacking the F-box (human) (UniProt Q9Y3I1); test: co-IP; HEK293 cells transfected with caspase 8-V5/His and FLAG-FBXO7-WT or a deletion mutant; IP with anti-FLAG, blot with anti-V5; Fig. S3B

Substance | binding [1] | binding [2]
FLAG-caspase 1-C284A (enzyme) | no binding | 
FLAG-caspase 2-C303A (enzyme) | no binding | 
caspase 8-V5/His (from UniProt Q14790 1-479) (enzyme) |  | binds
